# Data: the supplement of paper PMC12595434, “Development of retinoid nuclear receptor pathway antagonists through targeting aldehyde dehydrogenase 1A3” (iScience, 2025)
# Sequences of proteins named here, by UniProt entry; tags and fusion partners are left off. A change or cut given only in a name is not applied to a line headed by its entry.
# UniProt Q6P996: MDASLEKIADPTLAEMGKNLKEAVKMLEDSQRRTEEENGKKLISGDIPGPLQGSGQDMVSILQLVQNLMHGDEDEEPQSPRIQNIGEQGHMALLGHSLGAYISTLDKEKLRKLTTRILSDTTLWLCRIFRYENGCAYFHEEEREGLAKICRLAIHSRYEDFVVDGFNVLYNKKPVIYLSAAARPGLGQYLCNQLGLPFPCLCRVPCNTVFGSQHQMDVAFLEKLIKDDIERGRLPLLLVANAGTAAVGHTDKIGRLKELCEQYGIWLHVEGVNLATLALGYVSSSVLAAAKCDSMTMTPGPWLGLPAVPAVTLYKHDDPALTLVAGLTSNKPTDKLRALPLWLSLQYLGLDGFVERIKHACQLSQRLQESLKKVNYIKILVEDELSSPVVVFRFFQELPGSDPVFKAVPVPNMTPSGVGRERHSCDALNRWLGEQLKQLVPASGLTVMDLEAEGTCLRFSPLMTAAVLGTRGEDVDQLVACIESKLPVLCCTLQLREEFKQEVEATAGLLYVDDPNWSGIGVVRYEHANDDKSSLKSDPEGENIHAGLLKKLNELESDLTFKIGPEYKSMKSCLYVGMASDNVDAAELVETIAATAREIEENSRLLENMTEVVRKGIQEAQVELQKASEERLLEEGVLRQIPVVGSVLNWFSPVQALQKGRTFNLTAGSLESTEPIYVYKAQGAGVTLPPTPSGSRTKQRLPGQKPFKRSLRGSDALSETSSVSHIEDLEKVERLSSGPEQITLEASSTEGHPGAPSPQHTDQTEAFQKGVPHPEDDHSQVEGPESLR
# UniProt Q7Z7A4: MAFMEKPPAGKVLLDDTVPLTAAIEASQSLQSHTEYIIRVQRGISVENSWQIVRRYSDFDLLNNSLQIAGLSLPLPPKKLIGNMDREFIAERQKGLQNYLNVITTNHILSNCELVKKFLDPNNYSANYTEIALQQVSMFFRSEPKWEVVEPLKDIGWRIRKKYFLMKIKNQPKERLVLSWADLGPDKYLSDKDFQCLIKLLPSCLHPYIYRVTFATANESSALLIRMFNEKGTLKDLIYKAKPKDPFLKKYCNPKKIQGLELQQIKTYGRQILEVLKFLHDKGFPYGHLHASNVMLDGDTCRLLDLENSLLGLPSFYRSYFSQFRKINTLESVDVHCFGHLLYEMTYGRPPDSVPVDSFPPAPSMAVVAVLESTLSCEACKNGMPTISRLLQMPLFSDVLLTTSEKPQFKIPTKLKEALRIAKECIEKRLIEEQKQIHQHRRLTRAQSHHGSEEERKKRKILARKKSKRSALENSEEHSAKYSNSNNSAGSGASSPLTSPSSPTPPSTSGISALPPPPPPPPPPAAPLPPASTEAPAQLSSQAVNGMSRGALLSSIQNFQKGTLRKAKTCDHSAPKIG
# UniProt Q6ZYL4: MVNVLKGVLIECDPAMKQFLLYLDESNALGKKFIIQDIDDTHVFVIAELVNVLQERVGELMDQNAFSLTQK
# UniProt Q6PCB7: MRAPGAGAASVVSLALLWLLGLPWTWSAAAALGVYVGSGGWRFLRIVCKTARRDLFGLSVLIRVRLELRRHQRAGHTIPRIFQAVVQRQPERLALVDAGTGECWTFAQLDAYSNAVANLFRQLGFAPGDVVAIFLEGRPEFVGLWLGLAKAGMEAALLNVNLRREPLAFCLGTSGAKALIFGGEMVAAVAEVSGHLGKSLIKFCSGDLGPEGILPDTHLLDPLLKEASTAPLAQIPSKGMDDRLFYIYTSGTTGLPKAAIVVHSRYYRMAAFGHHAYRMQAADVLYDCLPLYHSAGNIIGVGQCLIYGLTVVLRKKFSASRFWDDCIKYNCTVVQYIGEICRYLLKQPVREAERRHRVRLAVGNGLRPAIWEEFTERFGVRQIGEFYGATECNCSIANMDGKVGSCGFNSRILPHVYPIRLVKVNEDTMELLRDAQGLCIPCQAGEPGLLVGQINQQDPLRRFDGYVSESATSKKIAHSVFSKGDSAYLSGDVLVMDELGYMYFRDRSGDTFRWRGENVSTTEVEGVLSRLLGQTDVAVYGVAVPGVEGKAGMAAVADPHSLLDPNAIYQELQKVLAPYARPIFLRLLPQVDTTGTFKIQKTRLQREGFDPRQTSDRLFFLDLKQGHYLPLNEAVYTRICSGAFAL
# UniProt Q70UQ0: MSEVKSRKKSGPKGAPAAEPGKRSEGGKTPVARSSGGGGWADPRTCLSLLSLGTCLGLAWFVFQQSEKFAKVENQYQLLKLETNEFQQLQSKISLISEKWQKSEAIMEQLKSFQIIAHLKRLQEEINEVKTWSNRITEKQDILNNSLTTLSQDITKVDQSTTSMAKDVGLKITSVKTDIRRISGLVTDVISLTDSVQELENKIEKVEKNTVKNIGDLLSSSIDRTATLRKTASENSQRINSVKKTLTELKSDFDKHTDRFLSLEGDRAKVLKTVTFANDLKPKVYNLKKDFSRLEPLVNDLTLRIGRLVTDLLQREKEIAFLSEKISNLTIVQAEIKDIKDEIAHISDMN
# UniProt Q7Z5G4, whole entry: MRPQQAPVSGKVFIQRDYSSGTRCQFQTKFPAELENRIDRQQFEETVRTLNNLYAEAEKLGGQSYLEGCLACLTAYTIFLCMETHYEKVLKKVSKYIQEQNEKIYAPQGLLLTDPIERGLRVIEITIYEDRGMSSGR
# UniProt Q6PJW8: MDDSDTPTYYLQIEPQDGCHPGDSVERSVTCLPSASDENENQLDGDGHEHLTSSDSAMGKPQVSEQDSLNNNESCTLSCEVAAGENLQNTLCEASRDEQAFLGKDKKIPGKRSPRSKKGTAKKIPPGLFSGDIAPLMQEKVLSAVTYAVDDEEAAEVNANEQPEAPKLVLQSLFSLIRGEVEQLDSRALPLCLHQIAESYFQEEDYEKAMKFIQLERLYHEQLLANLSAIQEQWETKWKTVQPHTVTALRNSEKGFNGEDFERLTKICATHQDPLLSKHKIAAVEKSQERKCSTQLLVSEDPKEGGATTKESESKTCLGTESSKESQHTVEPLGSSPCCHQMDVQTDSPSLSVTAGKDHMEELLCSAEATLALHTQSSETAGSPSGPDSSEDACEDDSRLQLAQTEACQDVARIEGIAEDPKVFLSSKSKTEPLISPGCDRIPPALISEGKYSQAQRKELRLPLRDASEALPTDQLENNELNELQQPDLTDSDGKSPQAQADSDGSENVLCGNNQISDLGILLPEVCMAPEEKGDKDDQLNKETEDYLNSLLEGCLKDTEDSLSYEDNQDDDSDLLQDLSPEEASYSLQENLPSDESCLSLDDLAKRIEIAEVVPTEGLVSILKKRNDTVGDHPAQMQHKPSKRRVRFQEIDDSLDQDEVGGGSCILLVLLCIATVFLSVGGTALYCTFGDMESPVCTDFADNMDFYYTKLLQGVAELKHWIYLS
# UniProt Q7L1V2: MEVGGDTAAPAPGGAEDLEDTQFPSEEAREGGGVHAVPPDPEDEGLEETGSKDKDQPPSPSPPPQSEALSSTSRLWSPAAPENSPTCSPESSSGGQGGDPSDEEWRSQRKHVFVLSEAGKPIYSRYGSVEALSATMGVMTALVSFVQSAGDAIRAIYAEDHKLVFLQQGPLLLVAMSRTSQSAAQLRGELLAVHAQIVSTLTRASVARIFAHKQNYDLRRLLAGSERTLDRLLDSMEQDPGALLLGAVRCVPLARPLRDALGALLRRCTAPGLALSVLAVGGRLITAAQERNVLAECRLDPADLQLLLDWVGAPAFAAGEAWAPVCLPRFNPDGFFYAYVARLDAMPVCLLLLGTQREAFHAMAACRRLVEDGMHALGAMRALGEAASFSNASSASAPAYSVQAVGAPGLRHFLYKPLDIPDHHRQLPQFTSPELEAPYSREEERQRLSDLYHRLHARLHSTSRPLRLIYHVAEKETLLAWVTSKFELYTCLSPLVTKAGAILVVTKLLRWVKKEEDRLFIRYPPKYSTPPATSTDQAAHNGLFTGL
# UniProt Q7Z5J4: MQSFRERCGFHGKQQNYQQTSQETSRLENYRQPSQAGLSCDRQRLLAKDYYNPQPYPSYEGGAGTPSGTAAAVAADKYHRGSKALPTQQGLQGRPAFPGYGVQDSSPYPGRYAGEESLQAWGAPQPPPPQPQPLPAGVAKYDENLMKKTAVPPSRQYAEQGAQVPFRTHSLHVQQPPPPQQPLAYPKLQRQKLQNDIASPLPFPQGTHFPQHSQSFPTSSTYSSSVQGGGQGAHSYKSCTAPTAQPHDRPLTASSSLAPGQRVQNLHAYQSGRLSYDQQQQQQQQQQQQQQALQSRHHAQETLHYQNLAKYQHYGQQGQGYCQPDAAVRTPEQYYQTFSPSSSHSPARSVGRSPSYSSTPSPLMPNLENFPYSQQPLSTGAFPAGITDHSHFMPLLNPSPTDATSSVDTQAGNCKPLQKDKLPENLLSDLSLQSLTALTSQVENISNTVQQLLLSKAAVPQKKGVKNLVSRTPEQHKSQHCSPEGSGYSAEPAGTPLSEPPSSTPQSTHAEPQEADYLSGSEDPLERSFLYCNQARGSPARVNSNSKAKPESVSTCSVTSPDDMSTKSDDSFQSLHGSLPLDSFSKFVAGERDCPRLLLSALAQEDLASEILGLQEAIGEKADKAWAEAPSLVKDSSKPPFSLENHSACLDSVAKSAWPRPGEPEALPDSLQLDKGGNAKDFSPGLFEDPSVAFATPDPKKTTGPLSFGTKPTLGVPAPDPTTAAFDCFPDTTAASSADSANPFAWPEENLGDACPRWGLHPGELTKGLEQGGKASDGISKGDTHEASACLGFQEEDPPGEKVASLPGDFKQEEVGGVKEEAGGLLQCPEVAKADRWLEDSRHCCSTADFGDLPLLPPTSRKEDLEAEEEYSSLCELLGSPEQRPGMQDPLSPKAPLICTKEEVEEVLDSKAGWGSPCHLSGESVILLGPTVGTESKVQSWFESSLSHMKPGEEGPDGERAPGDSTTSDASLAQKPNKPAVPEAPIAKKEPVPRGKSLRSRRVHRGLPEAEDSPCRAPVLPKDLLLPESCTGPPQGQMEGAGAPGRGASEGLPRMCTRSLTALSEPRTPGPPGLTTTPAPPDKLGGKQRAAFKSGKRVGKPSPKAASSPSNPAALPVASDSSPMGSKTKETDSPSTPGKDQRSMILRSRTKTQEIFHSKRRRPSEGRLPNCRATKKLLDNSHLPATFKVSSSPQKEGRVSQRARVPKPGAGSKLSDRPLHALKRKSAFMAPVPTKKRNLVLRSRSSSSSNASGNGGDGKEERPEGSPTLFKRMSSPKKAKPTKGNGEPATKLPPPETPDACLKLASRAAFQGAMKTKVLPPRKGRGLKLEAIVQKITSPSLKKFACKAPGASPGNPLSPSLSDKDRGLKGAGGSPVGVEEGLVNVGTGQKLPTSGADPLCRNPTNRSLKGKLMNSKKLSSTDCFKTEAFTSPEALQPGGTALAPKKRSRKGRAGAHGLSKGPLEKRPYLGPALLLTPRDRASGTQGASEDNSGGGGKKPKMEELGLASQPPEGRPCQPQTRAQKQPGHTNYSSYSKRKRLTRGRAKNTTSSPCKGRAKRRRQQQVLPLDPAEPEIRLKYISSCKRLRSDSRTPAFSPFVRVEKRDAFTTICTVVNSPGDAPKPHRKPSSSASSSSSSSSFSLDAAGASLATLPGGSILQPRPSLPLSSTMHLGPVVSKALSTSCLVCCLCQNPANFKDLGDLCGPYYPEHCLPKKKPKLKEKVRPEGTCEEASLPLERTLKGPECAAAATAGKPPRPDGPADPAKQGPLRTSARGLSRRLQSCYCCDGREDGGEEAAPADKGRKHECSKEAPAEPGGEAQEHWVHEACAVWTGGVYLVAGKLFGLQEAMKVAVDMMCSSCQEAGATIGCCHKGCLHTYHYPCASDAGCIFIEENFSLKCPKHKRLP
# UniProt Q6SZW1: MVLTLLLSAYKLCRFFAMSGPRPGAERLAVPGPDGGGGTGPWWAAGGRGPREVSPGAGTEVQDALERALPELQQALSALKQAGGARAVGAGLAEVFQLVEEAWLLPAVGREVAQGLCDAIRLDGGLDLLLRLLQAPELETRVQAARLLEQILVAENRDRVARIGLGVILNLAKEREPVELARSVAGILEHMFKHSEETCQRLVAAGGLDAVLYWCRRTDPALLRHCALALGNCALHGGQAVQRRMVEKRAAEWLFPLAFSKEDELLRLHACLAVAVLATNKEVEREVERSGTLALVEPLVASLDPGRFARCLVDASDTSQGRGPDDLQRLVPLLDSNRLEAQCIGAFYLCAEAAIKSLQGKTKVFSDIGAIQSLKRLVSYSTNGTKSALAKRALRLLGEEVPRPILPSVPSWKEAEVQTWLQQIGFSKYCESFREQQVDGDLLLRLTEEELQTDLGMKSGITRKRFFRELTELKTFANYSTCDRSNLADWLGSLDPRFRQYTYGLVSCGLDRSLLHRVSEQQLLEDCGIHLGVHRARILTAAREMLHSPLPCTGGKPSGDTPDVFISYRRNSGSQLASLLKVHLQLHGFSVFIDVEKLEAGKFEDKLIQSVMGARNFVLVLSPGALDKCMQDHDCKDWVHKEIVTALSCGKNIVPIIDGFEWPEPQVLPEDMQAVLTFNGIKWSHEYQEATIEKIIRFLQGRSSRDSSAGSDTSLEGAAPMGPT
# The other results are listed elsewhere or left out. This is a noisy data set.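 Many melting curves are irregular; where none melted, Tm was taken as 64 °C.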
# Compound: CCc1cnccc1C(=O)Nc1cc2c(cc1F)NC(=O)CC2
# Assay: melting temperature shift (DMSO Tm minus MBE1-treated Tm) in cellular thermal proteome profiling; higher = less thermal stabilization by MBE1 (negative = stabilized by MBE1)
# Conditions: A375
Target,melting temperature shift (MBE1 concentration: 100 nM) [°C],melting temperature shift (MBE1 concentration: 1 uM) [°C]
PDXDC1 (UniProt Q6P996),-0.908,-0.41
UniProt Q7Z7A4,1.03,0.782
UniProt Q6ZYL4,-0.414,-0.489
TMED4 (UniProt Q7Z7H5),-0.8,-1.36
KDELC1 (UniProt Q6UW63),-1.15,-0.0738
NOP9 (UniProt Q86U38),-0.135,0.0705
POGZ (UniProt Q7Z3K3),-0.694,-0.355
SYDE1 (UniProt Q6ZW31),-1.09,-0.975
UniProt Q86UT8,1.84,0.00611
DPH6 (UniProt Q7L8W6),0.36,0.0855
UniProt Q7L2Z9,0.611,2.2
LRRC8D (UniProt Q7L1W4),-0.872,0.359
UniProt Q71F23,-3.29,-1.52
RSRC2 (UniProt Q7L4I2),-3.67,-0.458
UniProt Q6ZN55,0.801,-0.692
FAM65A (UniProt Q6ZS17),0.409,0.212
ZC3HAV1 (UniProt Q7Z2W4),-1.03,-0.821
KYAT3 (UniProt Q6YP21),-1.17,-2.63
PHLDB1 (UniProt Q86UU1),0.293,0.0244
UniProt Q6UWZ7,-3.92,0.543
LUZP1 (UniProt Q86V48),-1.28,-0.944
TOM1L2 (UniProt Q6ZVM7),-0.476,0.0305
CSPG4 (UniProt Q6UVK1),-5.08,-1.44
CYP20A1 (UniProt Q6UW02),-1.16,1.17

Target,melting temperature shift (MBE1 concentration: 100 nM) [°C],melting temperature shift (MBE1 concentration: 1 uM) [°C]
BLOC1S3 (UniProt Q6QNY0),-0.986,-0.283
UniProt Q7Z589,-5.71,-4.49
PTAR1 (UniProt Q7Z6K3),-0.174,0.955
UniProt Q6PCB7,-0.0941,-0.0565
UniProt Q6ZT21,-2.51,1.16
STRADA (UniProt Q7RTN6),4.52,0.983
IKBIP (UniProt Q70UQ0),-1.7,-0.513
MYH14 (UniProt Q7Z406),0.812,0.55
LCLAT1 (UniProt Q6UWP7),-1.05,-0.884
UniProt Q7L804,0.177,0
CYB5R4 (UniProt Q7L1T6),0,0.223
TRMT10C (UniProt Q7L0Y3),0.641,0.403
GOLGA7 (UniProt Q7Z5G4),-3.96,-4.93
UniProt Q6PJW8,1,2.31
MRPL55 (UniProt Q7Z7F7),-0.55,-1.28
GALNT7 (UniProt Q86SF2),-0.704,0.288
MTHFD1L (UniProt Q6UB35),0.635,0.562
LRSAM1 (UniProt Q6UWE0),0.165,0.134
KTN1 (UniProt Q86UP2),0.678,0.226
PPIP5K1 (UniProt Q6PFW1),-0.885,0.684
OGFOD3 (UniProt Q6PK18),-1,0.689
UBE2R2 (UniProt Q712K3),-0.865,12.3
TRAPPC11 (UniProt Q7Z392),1.68,0.775
UniProt Q6PI98,0.0833,-0.852

# Single values from the results shown:
# UniProt Q7Z589 | melting temperature shift (MBE1 concentration: 1 uM) [°C]: -4.49
# TRMT10C (UniProt Q7L0Y3) | melting temperature shift (MBE1 concentration: 100 nM) [°C]: 0.641

# Continued.

Target,melting temperature shift (MBE1 concentration: 100 nM) [°C],melting temperature shift (MBE1 concentration: 1 uM) [°C]
UniProt Q6ZRS2,-0.871,-0.843
UniProt Q7Z3D6,-0.161,0.262
BTN2A1 (UniProt Q7KYR7),-0.872,0.711
RICTOR (UniProt Q6R327),-0.193,-0.87
HSDL2 (UniProt Q6YN16),0.629,0.537
ALKBH5 (UniProt Q6P6C2),-0.397,0.531
UniProt Q6PJI9,0.745,1.11
SH3RF1 (UniProt Q7Z6J0),-1.51,-2.08
STXBP4 (UniProt Q6ZWJ1),-0.819,-1.44
HACD2 (UniProt Q6Y1H2),0.127,-0.355
LDB1 (UniProt Q86U70),-2.49,-0.898
METTL3 (UniProt Q86U44),-0.524,0.684
UniProt Q6SPF0,-0.288,-0.833
UniProt Q71F56,0.287,-0.647
DDX46 (UniProt Q7L014),-0.739,-0.64
MEPCE (UniProt Q7L2J0),-0.706,-0.212
THADA (UniProt Q6YHU6),1.26,0.879
DYM (UniProt Q7RTS9),1.43,0.379
MICAL3 (UniProt Q7RTP6),0.324,0.11
UniProt Q7Z5Q1,-0.0366,0.727
WDR82 (UniProt Q6UXN9),-0.926,0.574
CYFIP1 (UniProt Q7L576),0.44,0.421
MON1B (UniProt Q7L1V2),-0.97,-0.206
UniProt Q6PL24,-0.0376,-0.268

Target,melting temperature shift (MBE1 concentration: 100 nM) [°C],melting temperature shift (MBE1 concentration: 1 uM) [°C]
KIF21A (UniProt Q7Z4S6),0.525,0
KDM3B (UniProt Q7LBC6),-0.71,-0.442
MTSS1L (UniProt Q765P7),0.543,1.25
UniProt Q6ZUT6,-0.641,-0.128
UniProt Q7Z4F1,-1.54,-0.47
UniProt Q6ZPD9,0.44,0.403
HDDC2 (UniProt Q7Z4H3),-1.7,-2.05
LARP1 (UniProt Q6PKG0),-0.393,0.58
NT5DC3 (UniProt Q86UY8),-0.845,0.0268
CCDC186 (UniProt Q7Z3E2),1.64,0.598
MARK2 (UniProt Q7KZI7),-0.696,-0.485
CCDC91 (UniProt Q7Z6B0),0.294,-0.0402
NAA40 (UniProt Q86UY6),-1.14,-0.32
LPCAT2 (UniProt Q7L5N7),0.623,0.751
KCTD9 (UniProt Q7L273),-1.22,0.635
UniProt Q7Z5J4,0.855,0.885
UniProt Q6ZVK8,0.892,1.66
TRAF7 (UniProt Q6Q0C0),0.641,0.299
HDGFRP2 (UniProt Q7Z4V5),-2.01,0.879
PAXIP1 (UniProt Q6ZW49),1.37,3.47
UniProt Q6SZW1,0.971,0.574
PACS1 (UniProt Q6VY07),0.434,1.09
UniProt Q6UB28,0.282,1.4
